The other results are listed elsewhere or left out.
Legend:
Test in all cases: log2 fold change, soluble protein after heating vs DMSO (PISA); higher = thermal stabilisation; K562 lysate, 10 uM; active = over 0.2 and 3.5 SD of the protein, either way, in both replicates (recomputed)
erlotinib = compound: C#Cc1cccc(Nc2ncnc3cc(OCCOC)c(OCCOC)cc23)c1 [erlotinib]
How it was run: (§1)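 Log-two fold change in thermal stability relative to solvent controls is reported from duplicates. For each sample, crude K562 extract from dounce-homogenised pellets in PBS pH 7.4 with 1 mM MgCl2, at 1 mg/mL protein, was treated with 10 μM compound for 30 min. Aliquots heated for 3 min across 48°C-58°C were pooled, brought to 0.5% NP-40 at 4°C and cleared at 21,000xg for 90 min. The supernatant was quantified by TMTpro 16plex LC-MS/MS with channel sums equalised.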

Chains of the proteins cited; added tags and fusions are not shown. Lines headed by an entry give the natural chain unless they say otherwise; changes in a name come on top.
UniProt Q7Z569: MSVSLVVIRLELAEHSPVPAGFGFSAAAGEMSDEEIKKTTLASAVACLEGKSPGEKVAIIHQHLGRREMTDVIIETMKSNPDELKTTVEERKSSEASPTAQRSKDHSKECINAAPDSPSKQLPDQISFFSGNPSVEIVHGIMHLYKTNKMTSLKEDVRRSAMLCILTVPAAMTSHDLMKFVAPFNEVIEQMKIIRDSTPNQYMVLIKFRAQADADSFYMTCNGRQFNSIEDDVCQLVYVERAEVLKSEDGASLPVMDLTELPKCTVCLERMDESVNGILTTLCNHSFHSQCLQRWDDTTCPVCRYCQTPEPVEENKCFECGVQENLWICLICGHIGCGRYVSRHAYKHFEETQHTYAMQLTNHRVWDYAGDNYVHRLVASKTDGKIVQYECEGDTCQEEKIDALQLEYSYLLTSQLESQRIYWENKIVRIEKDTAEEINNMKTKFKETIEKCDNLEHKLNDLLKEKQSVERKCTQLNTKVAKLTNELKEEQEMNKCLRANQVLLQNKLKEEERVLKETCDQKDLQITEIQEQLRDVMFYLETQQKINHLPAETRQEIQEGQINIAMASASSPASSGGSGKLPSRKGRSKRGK
UniProt P43251: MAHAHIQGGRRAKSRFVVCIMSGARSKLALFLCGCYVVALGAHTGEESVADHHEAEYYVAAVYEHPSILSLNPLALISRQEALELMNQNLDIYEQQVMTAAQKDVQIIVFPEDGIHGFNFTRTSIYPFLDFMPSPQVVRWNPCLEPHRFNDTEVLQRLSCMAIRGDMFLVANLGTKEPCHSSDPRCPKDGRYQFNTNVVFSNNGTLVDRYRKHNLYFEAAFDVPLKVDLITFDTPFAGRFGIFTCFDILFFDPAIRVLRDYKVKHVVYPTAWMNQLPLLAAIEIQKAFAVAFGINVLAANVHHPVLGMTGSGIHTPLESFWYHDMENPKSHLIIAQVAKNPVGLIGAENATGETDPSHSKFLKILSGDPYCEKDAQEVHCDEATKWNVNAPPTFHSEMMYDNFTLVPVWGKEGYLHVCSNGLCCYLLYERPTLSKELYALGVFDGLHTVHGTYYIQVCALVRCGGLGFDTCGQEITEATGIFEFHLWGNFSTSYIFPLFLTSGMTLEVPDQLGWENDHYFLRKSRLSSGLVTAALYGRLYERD
UniProt P15291: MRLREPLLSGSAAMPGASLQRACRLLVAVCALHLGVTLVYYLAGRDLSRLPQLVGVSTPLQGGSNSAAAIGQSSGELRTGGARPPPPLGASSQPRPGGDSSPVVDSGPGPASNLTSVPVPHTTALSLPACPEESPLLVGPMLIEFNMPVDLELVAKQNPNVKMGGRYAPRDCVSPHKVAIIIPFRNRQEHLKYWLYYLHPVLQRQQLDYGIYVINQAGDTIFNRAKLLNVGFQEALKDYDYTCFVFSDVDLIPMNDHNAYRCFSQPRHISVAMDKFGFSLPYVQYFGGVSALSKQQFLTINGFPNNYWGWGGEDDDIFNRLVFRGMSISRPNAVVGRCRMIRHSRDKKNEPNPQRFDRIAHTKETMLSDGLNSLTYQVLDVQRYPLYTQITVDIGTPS
UniProt P51587, whole entry, looked up: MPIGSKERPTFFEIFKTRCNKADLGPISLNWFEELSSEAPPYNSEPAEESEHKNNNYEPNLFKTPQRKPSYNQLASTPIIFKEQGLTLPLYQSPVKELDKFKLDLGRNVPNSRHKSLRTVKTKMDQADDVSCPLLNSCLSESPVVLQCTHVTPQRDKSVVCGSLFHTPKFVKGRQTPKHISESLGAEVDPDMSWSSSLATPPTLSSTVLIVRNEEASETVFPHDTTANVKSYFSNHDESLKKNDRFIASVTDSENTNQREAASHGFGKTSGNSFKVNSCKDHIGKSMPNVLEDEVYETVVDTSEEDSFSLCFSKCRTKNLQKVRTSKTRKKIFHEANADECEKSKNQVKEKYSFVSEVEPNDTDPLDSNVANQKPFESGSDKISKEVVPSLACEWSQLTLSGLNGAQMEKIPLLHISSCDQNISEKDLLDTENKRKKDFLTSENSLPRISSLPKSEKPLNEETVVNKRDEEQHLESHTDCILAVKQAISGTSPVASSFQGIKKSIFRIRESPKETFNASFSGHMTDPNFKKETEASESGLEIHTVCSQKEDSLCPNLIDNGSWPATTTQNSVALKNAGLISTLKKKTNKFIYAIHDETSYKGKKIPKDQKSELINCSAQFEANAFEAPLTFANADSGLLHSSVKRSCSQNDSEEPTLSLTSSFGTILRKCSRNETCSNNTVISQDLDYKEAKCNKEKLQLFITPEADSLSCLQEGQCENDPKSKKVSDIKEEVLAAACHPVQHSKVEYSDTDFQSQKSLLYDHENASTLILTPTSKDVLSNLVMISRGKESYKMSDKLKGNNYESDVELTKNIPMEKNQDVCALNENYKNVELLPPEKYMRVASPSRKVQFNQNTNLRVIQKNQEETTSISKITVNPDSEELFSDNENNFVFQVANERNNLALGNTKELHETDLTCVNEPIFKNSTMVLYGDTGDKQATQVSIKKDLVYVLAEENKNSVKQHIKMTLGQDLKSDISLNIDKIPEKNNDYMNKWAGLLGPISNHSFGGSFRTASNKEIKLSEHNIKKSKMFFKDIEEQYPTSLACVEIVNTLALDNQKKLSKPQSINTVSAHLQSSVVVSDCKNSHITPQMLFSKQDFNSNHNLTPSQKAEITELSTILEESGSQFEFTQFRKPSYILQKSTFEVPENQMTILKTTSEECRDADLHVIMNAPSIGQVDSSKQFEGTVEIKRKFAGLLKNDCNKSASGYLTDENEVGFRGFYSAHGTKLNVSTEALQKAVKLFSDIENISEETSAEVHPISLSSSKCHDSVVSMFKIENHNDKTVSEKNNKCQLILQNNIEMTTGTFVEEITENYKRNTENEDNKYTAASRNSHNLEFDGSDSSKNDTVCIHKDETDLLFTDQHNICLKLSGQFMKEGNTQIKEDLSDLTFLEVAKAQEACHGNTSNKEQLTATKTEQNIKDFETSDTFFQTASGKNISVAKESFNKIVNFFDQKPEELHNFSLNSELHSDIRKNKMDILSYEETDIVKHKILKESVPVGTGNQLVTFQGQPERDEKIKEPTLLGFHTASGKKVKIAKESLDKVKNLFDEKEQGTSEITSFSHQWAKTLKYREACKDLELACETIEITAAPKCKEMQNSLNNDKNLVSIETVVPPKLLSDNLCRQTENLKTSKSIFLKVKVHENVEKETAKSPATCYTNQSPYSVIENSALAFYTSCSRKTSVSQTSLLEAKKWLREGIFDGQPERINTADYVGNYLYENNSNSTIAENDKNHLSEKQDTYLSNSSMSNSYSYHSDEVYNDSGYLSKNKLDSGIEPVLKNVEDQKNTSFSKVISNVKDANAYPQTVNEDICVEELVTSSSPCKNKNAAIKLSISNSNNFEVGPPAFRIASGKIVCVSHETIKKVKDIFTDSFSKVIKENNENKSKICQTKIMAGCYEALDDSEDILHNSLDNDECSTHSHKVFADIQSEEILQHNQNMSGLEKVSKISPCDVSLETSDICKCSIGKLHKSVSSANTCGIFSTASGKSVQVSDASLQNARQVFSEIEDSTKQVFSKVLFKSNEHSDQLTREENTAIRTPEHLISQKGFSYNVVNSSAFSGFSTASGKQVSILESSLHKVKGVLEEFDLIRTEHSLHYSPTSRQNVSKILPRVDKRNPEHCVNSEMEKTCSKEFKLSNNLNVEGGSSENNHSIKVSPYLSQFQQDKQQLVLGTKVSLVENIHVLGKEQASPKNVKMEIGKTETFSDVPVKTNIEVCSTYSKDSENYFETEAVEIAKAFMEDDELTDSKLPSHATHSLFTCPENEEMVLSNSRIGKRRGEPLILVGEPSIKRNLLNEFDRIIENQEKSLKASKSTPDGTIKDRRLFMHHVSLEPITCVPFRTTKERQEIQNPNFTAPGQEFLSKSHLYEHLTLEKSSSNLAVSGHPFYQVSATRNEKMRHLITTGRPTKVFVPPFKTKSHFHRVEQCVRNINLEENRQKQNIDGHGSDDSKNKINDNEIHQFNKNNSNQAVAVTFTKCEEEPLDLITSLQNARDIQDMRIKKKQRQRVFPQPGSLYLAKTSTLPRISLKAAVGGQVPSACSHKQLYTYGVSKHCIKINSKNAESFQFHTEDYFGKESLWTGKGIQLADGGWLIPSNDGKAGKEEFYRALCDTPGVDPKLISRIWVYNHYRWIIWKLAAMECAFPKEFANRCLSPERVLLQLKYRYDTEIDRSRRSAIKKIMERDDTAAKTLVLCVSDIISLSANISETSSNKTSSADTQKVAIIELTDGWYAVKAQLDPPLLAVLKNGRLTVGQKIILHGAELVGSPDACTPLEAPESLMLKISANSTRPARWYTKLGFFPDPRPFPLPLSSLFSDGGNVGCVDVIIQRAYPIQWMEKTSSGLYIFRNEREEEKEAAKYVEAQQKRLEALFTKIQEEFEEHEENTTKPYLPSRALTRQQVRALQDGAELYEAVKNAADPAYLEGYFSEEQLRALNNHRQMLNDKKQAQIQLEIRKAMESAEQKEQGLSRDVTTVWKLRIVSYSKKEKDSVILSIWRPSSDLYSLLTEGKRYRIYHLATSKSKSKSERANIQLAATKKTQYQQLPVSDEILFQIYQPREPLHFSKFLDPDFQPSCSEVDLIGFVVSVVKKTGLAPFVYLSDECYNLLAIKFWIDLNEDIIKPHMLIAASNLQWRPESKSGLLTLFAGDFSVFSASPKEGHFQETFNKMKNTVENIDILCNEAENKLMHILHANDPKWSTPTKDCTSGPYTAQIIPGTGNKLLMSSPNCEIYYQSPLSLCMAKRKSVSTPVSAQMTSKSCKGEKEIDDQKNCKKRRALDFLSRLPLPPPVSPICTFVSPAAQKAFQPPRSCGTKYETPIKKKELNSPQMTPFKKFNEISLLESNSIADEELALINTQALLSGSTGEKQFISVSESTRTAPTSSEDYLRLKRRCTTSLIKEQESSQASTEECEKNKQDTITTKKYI
UniProt Q10589, whole entry, looked up: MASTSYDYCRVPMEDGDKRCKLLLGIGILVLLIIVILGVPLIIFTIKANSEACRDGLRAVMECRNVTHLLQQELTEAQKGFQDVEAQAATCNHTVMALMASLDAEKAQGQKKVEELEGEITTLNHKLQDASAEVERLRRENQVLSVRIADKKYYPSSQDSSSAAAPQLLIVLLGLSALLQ
UniProt Q8WY22: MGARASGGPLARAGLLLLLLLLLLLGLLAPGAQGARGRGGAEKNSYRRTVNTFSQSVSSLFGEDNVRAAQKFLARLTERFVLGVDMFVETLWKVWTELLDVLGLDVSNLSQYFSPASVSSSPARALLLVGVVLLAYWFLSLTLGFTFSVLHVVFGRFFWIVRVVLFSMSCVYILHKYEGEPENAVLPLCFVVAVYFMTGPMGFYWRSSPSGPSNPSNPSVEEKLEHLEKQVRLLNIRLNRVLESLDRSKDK
UniProt Q9HB09: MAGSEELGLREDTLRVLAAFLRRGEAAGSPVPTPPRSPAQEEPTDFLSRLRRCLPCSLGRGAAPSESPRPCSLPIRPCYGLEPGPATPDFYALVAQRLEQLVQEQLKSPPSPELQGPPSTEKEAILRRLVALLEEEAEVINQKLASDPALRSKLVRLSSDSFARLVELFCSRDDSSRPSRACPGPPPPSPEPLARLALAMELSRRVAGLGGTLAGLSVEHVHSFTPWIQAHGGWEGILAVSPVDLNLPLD
UniProt P07738: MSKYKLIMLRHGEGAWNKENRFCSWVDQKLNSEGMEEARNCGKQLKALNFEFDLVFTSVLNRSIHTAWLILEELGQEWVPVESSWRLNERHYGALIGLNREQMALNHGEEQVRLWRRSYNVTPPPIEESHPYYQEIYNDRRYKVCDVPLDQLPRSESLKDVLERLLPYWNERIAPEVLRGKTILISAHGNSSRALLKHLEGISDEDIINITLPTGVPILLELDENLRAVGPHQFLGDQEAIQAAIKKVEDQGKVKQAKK
UniProt Q9NYM9: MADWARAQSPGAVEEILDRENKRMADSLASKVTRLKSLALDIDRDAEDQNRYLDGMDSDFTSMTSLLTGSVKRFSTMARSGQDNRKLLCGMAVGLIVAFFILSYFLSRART
UniProt O95817, whole entry, looked up: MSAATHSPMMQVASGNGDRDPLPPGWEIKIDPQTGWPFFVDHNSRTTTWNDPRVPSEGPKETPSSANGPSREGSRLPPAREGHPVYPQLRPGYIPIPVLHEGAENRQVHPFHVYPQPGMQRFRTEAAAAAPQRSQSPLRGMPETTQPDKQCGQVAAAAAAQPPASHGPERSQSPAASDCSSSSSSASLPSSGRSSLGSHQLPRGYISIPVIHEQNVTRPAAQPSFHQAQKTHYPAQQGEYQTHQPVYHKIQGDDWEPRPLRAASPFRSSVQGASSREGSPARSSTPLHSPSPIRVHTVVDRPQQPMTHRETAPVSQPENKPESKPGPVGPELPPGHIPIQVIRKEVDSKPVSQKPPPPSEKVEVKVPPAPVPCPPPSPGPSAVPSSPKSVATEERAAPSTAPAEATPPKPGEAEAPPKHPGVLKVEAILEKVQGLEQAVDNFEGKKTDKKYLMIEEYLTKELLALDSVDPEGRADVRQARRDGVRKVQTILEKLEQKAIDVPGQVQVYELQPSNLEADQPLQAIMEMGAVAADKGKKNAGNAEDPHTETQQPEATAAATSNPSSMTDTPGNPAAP

[1] = compound: C/C(=N\NC(=O)C1=CC(=CC=C1)S(=O)(=O)N2CCOCC2)/C3=C(C=CC(=C3)Cl)O
How it was run: as §1

[2] = compound: C1=CC(=CC=C1C2=NC3=C(N2)C=C(C=C3)C(=O)N)OC4=CC=C(C=C4)Cl
How it was run: as §1

[3] = compound: C1=CC2=C(C=CC(=C2)/C=C\3/C(=O)NC(=NCC4=CC=CS4)S3)N=C1
How it was run: as §1

[4] = compound: C1=CC2=NC=CN=C2C=C1/C=C/3\C(=O)NC(=O)S3
How it was run: as §1

[5] = compound: C1=CC=C(C=C1)C2=NC(=C(N2)C3=CC=NC=C3)C4=CC(=C(C=C4)Cl)O
How it was run: as §1

[6] = compound: C1=CC=C2C(=C1)C3=NNC4=CC=CC(=C43)C2=O
How it was run: as §1

[7] = compound: C1CCN(C1)C(=O)NC2=CC=CC(=C2)NC3=NC=C(C(=N3)NCCC4=CN=CN4)Br
How it was run: as §1

[8] = compound: C1CN(CCC1(CC2=CC=C(C=C2)Cl)N)C3=NC=NC4=C3C=CN4
How it was run: as §1

IRAK-1-4 Inhibitor I = compound: C1COCCN1CCN2C3=CC=CC=C3N=C2NC(=O)C4=CC(=CC=C4)[N+](=O)[O-] [IRAK-1-4 Inhibitor I]
How it was run: as §1

ibrutinib = compound: C=CC(=O)N1CCC[C@@H](n2nc(-c3ccc(Oc4ccccc4)cc3)c3c(N)ncnc32)C1 [ibrutinib]
How it was run: as §1

[9] = compound: CC(=O)c1cnc2ccc(-c3cc(Cl)c(O)c(Cl)c3)nc2c1N[C@H]1CC[C@H](CN(C)C)CC1
How it was run: as §1

ralimetinib = compound: CC(C)(C)Cn1c(N)nc2ccc(-c3[nH]c(C(C)(C)C)nc3-c3ccc(F)cc3)nc21 [ralimetinib]
How it was run: as §1

[10] = compound: CC(C)(O)CC(=O)NCCn1ccc2ncnc(Nc3ccc(Oc4cccc(C(F)(F)F)c4)c(Cl)c3)c21
How it was run: as §1

[11] = compound: CC(C)C1=C2N=C(C=C(N2N=C1)NCC3=CC=CC=C3)NCCCCCCN
How it was run: as §1

[12] = compound: CC1=C(C(CC(=O)N1)C2=CC=C(C=C2)C(F)(F)F)C(=O)NC3=C(C=C4C(=C3)C=NN4)F
How it was run: as §1

[13] = compound: CC1=C(C2=C(C=C1)C(=O)C3=CC=CC=C3N2CCCN)C
How it was run: as §1

[14] = compound: CC1=C(C=C(C=C1)NC(=O)C2=CC(=CC=C2)C(C)(C)C#N)NC3=CC4=C(C=C3)N=CN(C4=O)C
How it was run: as §1

[15] = compound: CC1=C(C=C(C=C1)NC(=O)C2=CC(=CC=C2)N(C)C)NC(=O)C3=CC=C(C=C3)O
How it was run: as §1

[16] = compound: CC1=CC=C(C=C1)SC2=C3C=C(SC3=CN=C2)C(=O)N
How it was run: as §1

Measured: log2 fold change

BICD2 isoform 2 (UniProt Q8TD16)
inactive: erlotinib -0.021 | [1] 0.09 | [2] 0.004 | [3] -0.014 | [4] -0.004 | [5] -0.013 | [6] -0.033 | [7] 0.017 | [8] -0.002 | IRAK-1-4 Inhibitor I -0.021 | ibrutinib 0.066 | [9] -0.024 | ralimetinib -0.017 | [10] -0.031 | [11] -0.017 | [12] -0.022 | [13] -0.01 | [14] 0.011 | [15] 0.015 | [16] -0.035

BRAT1 (UniProt Q6PJG6)
inactive: erlotinib 0.05 | [1] -0.01 | [2] -0.052 | [3] 0.006 | [4] 0.026 | [5] 0.03 | [6] -0.075 | [7] 0.003 | [8] -0.013 | IRAK-1-4 Inhibitor I -0.013 | ibrutinib 0.002 | [9] 0.013 | ralimetinib 0.005 | [10] -0.038 | [11] -0.001 | [12] -0.028 | [13] 0 | [14] -0.006 | [15] -0.015 | [16] 0.019

BRAP (UniProt Q7Z569)
inactive: erlotinib 0.004 | [1] -0.005 | [2] 0.013 | [3] -0.008 | [4] 0 | [5] 0.01 | [6] -0.032 | [7] -0.035 | [8] 0.027 | IRAK-1-4 Inhibitor I 0.005 | ibrutinib 0.003 | [9] -0.02 | ralimetinib 0.022 | [10] -0.006 | [11] 0.034 | [12] 0.018 | [13] -0.001 | [14] 0.018 | [15] 0.02 | [16] 0.003

BOP1 (UniProt Q14137)
inactive: erlotinib 0.011 | [1] -0.027 | [2] 0.022 | [3] -0.001 | [4] -0.005 | [5] -0.002 | [6] -0.04 | [7] -0.002 | [8] 0.006 | IRAK-1-4 Inhibitor I -0.031 | ibrutinib 0.027 | [9] -0.032 | ralimetinib 0.008 | [10] -0.008 | [11] -0.011 | [12] -0.012 | [13] 0.003 | [14] 0.011 | [15] 0.034 | [16] 0.001

BRK1 isoform 2 (UniProt Q8WUW1)
inactive: erlotinib 0.032 | [1] -0.03 | [2] -0.09 | [3] 0.088 | [4] -0.059 | [5] -0.025 | [6] 0.038 | [7] -0.004 | [8] 0.086 | IRAK-1-4 Inhibitor I -0.047 | ibrutinib 0.087 | [9] -0.083 | ralimetinib 0.001 | [10] 0.03 | [11] -0.039 | [12] -0.028 | [13] -0.008 | [14] -0.076 | [15] -0.048 | [16] 0.031

BTD isoform 3 (UniProt P43251)
inactive: erlotinib 0.021 | [1] 0.037 | [2] -0.015 | [3] -0.001 | [4] 0.01 | [5] 0.016 | [6] -0.006 | [7] 0.023 | [8] -0.023 | IRAK-1-4 Inhibitor I 0.043 | ibrutinib 0.032 | [9] -0.034 | ralimetinib 0.046 | [10] -0.104 | [11] -0.03 | [13] 0.014 | [14] -0.005 | [15] -0.057 | [16] -0.072

B4GALT1 (UniProt P15291)
inactive: erlotinib -0.03 | [1] 0.052 | [2] -0.037 | [3] -0.123 | [4] -0.059 | [5] -0.018 | [6] -0.012 | [7] 0.006 | [8] 0.003 | IRAK-1-4 Inhibitor I 0.061 | ibrutinib -0.001 | [9] 0.011 | ralimetinib 0.027 | [10] -0.123 | [11] 0.05 | [12] 0.05 | [14] -0.01 | [15] 0.013 | [16] 0.005

Pulled one by one from the list above (two):
BTD isoform 3 (UniProt P43251)
inactive: erlotinib 0.021 | [1] 0.037 | [2] -0.015 | [3] -0.001 | [4] 0.01 | [5] 0.016 | [6] -0.006 | [7] 0.023 | [8] -0.023 | IRAK-1-4 Inhibitor I 0.043 | ibrutinib 0.032 | [9] -0.034 | ralimetinib 0.046 | [10] -0.104 | [11] -0.03 | [13] 0.014 | [14] -0.005 | [15] -0.057 | [16] -0.072

BRK1 isoform 2 (UniProt Q8WUW1)
inactive: erlotinib 0.032 | [1] -0.03 | [2] -0.09 | [3] 0.088 | [4] -0.059 | [5] -0.025 | [6] 0.038 | [7] -0.004 | [8] 0.086 | IRAK-1-4 Inhibitor I -0.047 | ibrutinib 0.087 | [9] -0.083 | ralimetinib 0.001 | [10] 0.03 | [11] -0.039 | [12] -0.028 | [13] -0.008 | [14] -0.076 | [15] -0.048 | [16] 0.031

Later entries:

BRCA2 (UniProt P51587)
inactive: erlotinib -0.066 | [1] -0.08 | [2] -0.221 | [3] -0.037 | [4] 0.014 | [5] 0.001 | [6] -0.107 | [7] -0.087 | [8] 0.111 | IRAK-1-4 Inhibitor I 0.106 | ibrutinib -0.167 | ralimetinib -0.15 | [10] -0.021 | [11] -0.008 | [12] 0.088 | [13] -0.15 | [14] -0.003 | [15] 0.121

BST2 (UniProt Q10589)
inactive: erlotinib -0.061 | [1] -0.003 | [2] 0.011 | [3] 0.011 | [4] -0.003 | [5] -0.056 | [6] 0.039 | [7] -0.018 | [8] 0.03 | IRAK-1-4 Inhibitor I -0.007 | ibrutinib 0.025 | [9] -0.011 | ralimetinib -0.003 | [10] -0.05 | [11] -0.059 | [12] -0.042 | [13] 0.027 | [14] -0.016 | [15] -0.021 | [16] -0.057

BRI3BP (UniProt Q8WY22)
inactive: erlotinib 0.049 | [1] 0.106 | [2] 0.077 | [3] -0.009 | [4] 0.047 | [5] -0.029 | [6] -0.11 | [7] 0.108 | [8] 0.103 | IRAK-1-4 Inhibitor I -0.074 | ibrutinib -0.057 | [9] 0.096 | ralimetinib -0.005 | [10] 0.052 | [11] -0.121 | [12] -0.007 | [13] 0.056 | [15] -0.085 | [16] 0.006

BCL2L12 (UniProt Q9HB09)
inactive: erlotinib 0.055 | [1] -0.067 | [2] -0.01 | [3] -0.056 | [4] 0.119 | [5] -0.111 | [6] 0.144 | [7] 0.162 | [8] 0.015 | IRAK-1-4 Inhibitor I 0.002 | ibrutinib -0.26 | [9] -0.084 | ralimetinib 0.073 | [10] -0.024 | [11] 0.057 | [12] 0 | [13] -0.021 | [14] 0.028 | [15] -0.024 | [16] 0.099

BPGM (UniProt P07738)
inactive: erlotinib -0.03 | [1] 0.016 | [2] 0.073 | [3] 0.002 | [4] -0.022 | [5] -0.061 | [6] -0.066 | [7] 0.071 | [8] -0.041 | IRAK-1-4 Inhibitor I 0 | ibrutinib 0.013 | [9] 0.093 | ralimetinib -0.01 | [10] -0.088 | [11] -0.016 | [12] -0.005 | [13] 0.011 | [14] 0.005 | [15] -0.009 | [16] 0.005

BET1L (UniProt Q9NYM9)
inactive: erlotinib 0.04 | [1] -0.025 | [2] -0.049 | [3] 0.064 | [4] 0.071 | [5] -0.04 | [6] -0.16 | [7] -0.059 | [8] 0.029 | IRAK-1-4 Inhibitor I -0.025 | ibrutinib 0.224 | [9] 0.022 | ralimetinib 0.034 | [10] 0.047 | [11] -0.124 | [12] -0.065 | [13] 0.009 | [14] -0.03 | [15] -0.014 | [16] 0.184

BCAT1 (UniProt P54687)
inactive: erlotinib -0.007 | [1] 0.034 | [2] 0.028 | [3] -0.015 | [4] 0.009 | [5] -0.001 | [6] 0.003 | [7] -0.008 | [8] 0.01 | IRAK-1-4 Inhibitor I 0.033 | ibrutinib 0.019 | [9] 0.009 | ralimetinib -0.002 | [10] -0.02 | [11] -0.01 | [12] -0.017 | [13] 0.003 | [14] 0.001 | [15] -0.012 | [16] -0.028

BAG3 (UniProt O95817)
inactive: erlotinib -0.047 | [1] 0.001 | [2] -0.02 | [3] -0.021 | [4] -0.005 | [5] 0.005 | [6] -0.002 | [7] 0.001 | [8] -0.003 | IRAK-1-4 Inhibitor I 0.008 | ibrutinib 0.05 | [9] -0.02 | ralimetinib -0.049 | [10] 0 | [11] -0.026 | [12] -0.003 | [13] -0.042 | [14] -0.004 | [15] -0.037 | [16] -0.014

BPNT1 (UniProt A6NF51)
inactive: erlotinib 0.007 | [1] 0.166 | [2] 0.088 | [3] -0.144 | [4] -0.074 | [5] 0 | [6] -0.017 | [7] -0.229 | [8] 0.13 | IRAK-1-4 Inhibitor I 0.028 | ibrutinib 0.116 | ralimetinib 0.02 | [10] -0.022 | [11] -0.09 | [13] -0.178 | [15] 0.07

— the supplement of paper PMC10849652
